# Measured values from the supplement of paper PMC12067093, “Discovery and optimisation of a covalent ligand for TRIM25 and its application to targeted protein ubiquitination” (Chemical Science, 2025).
# Sequences of proteins named here, by UniProt entry; tags and fusion partners are left off. A change or cut given only in a name is not applied to a line headed by its entry.
# UniProt Q9P2R3: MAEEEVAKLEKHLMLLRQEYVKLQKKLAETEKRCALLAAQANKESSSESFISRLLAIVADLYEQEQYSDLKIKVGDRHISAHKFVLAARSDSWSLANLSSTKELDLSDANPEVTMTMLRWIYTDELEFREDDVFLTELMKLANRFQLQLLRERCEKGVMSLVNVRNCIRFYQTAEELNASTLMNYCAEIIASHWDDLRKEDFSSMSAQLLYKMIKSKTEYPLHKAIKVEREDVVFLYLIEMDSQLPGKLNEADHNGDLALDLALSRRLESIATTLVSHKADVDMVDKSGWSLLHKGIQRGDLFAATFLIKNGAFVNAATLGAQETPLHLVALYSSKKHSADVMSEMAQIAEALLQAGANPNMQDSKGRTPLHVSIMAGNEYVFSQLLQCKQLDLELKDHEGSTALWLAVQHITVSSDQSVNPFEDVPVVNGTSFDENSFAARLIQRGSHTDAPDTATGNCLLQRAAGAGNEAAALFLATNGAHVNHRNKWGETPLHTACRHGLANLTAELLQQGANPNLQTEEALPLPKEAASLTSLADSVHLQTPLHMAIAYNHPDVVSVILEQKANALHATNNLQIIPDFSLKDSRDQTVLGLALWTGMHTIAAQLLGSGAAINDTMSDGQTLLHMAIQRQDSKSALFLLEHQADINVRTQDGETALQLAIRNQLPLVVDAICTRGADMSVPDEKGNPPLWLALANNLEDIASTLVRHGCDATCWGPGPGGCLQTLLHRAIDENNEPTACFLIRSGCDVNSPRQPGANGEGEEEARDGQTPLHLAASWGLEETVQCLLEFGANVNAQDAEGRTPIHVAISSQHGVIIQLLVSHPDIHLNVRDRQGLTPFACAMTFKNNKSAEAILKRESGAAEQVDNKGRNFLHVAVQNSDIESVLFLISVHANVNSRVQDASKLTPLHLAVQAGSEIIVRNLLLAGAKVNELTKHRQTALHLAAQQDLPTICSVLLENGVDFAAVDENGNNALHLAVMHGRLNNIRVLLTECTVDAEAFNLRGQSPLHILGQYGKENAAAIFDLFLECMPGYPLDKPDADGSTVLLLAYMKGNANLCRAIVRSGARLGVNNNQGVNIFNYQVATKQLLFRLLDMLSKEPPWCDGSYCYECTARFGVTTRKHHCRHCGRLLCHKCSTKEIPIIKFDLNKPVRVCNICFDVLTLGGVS
# UniProt Q9NYG5, whole entry, looked up: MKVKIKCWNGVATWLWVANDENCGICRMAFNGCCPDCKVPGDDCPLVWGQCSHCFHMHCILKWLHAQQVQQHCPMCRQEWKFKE
# UniProt Q13740: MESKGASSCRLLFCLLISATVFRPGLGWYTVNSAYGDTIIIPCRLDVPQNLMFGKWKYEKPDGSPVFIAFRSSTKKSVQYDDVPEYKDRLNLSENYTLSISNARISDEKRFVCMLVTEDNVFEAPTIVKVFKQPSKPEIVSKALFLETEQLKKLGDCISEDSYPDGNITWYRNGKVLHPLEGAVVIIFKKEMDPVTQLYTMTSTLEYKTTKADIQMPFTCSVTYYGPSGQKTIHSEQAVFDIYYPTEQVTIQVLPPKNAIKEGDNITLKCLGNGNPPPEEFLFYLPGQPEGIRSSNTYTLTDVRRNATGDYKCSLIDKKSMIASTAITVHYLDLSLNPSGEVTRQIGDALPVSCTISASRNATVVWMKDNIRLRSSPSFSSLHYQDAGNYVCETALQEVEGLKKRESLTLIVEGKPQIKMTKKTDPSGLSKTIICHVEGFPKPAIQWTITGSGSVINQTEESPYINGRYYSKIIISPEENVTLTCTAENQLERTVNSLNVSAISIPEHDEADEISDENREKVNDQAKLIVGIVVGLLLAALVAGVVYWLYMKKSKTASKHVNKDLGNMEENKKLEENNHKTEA
# UniProt P09972: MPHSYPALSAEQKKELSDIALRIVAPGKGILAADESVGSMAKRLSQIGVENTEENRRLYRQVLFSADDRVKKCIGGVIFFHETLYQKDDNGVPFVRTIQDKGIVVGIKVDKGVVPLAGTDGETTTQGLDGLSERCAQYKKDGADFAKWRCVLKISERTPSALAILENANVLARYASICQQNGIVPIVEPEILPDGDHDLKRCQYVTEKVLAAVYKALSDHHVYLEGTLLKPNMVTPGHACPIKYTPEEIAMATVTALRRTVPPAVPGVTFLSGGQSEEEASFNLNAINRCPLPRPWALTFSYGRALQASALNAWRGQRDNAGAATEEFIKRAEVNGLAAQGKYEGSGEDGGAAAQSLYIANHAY
# UniProt P02760: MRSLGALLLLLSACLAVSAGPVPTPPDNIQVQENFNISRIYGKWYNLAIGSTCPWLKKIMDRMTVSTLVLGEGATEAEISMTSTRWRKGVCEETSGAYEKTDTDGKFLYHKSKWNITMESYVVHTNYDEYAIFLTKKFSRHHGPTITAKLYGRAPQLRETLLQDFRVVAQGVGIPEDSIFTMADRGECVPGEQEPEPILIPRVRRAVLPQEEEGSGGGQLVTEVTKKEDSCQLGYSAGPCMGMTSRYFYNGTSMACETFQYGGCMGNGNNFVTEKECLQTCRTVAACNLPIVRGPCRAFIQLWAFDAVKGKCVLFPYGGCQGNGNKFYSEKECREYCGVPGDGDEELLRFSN
# UniProt O00170: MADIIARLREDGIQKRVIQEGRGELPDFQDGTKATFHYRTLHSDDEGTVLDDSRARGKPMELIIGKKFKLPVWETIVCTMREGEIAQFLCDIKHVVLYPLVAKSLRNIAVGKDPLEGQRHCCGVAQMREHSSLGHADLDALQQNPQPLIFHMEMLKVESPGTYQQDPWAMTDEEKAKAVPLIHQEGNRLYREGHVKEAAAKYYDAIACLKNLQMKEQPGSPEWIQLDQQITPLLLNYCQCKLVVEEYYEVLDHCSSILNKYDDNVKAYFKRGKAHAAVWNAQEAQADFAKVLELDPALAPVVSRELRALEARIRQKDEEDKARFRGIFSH
# UniProt O43865, whole entry, looked up: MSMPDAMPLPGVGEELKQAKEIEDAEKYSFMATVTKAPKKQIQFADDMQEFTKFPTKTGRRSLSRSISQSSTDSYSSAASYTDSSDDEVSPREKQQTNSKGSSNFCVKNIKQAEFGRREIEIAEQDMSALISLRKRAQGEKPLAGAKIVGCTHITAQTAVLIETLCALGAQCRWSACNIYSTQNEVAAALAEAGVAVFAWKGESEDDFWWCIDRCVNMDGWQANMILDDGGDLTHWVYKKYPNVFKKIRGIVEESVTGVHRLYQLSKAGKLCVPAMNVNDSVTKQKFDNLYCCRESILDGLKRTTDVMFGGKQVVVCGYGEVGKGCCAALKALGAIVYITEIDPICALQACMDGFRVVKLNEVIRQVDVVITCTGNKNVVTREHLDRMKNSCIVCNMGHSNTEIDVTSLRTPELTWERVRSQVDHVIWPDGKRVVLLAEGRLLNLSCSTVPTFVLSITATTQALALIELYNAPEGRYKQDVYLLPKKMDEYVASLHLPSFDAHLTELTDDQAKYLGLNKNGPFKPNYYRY
# UniProt P30038: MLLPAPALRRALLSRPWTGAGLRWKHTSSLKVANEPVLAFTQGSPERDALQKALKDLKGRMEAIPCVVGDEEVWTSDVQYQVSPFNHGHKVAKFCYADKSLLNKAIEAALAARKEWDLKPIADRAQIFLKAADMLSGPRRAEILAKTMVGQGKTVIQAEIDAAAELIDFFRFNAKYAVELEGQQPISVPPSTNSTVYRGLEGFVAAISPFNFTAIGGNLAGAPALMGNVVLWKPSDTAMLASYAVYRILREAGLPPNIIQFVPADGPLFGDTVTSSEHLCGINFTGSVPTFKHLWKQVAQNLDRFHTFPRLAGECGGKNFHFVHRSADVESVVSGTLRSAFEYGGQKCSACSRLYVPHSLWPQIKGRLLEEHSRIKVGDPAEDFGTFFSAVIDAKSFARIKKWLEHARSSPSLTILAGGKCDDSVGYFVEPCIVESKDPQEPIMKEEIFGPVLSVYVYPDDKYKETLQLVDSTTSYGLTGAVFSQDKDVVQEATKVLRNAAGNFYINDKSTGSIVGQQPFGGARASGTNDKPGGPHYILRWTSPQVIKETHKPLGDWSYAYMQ
# UniProt Q13155: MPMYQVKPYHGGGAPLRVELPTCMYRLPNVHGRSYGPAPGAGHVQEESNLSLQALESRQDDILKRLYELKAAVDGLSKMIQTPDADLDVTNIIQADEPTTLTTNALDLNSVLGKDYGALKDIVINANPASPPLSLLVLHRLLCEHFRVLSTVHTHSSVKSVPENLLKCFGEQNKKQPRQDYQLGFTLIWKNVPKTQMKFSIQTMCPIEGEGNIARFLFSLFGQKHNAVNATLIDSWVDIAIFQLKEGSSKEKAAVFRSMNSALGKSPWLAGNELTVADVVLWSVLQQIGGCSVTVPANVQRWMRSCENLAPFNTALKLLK
# UniProt Q8WYP5: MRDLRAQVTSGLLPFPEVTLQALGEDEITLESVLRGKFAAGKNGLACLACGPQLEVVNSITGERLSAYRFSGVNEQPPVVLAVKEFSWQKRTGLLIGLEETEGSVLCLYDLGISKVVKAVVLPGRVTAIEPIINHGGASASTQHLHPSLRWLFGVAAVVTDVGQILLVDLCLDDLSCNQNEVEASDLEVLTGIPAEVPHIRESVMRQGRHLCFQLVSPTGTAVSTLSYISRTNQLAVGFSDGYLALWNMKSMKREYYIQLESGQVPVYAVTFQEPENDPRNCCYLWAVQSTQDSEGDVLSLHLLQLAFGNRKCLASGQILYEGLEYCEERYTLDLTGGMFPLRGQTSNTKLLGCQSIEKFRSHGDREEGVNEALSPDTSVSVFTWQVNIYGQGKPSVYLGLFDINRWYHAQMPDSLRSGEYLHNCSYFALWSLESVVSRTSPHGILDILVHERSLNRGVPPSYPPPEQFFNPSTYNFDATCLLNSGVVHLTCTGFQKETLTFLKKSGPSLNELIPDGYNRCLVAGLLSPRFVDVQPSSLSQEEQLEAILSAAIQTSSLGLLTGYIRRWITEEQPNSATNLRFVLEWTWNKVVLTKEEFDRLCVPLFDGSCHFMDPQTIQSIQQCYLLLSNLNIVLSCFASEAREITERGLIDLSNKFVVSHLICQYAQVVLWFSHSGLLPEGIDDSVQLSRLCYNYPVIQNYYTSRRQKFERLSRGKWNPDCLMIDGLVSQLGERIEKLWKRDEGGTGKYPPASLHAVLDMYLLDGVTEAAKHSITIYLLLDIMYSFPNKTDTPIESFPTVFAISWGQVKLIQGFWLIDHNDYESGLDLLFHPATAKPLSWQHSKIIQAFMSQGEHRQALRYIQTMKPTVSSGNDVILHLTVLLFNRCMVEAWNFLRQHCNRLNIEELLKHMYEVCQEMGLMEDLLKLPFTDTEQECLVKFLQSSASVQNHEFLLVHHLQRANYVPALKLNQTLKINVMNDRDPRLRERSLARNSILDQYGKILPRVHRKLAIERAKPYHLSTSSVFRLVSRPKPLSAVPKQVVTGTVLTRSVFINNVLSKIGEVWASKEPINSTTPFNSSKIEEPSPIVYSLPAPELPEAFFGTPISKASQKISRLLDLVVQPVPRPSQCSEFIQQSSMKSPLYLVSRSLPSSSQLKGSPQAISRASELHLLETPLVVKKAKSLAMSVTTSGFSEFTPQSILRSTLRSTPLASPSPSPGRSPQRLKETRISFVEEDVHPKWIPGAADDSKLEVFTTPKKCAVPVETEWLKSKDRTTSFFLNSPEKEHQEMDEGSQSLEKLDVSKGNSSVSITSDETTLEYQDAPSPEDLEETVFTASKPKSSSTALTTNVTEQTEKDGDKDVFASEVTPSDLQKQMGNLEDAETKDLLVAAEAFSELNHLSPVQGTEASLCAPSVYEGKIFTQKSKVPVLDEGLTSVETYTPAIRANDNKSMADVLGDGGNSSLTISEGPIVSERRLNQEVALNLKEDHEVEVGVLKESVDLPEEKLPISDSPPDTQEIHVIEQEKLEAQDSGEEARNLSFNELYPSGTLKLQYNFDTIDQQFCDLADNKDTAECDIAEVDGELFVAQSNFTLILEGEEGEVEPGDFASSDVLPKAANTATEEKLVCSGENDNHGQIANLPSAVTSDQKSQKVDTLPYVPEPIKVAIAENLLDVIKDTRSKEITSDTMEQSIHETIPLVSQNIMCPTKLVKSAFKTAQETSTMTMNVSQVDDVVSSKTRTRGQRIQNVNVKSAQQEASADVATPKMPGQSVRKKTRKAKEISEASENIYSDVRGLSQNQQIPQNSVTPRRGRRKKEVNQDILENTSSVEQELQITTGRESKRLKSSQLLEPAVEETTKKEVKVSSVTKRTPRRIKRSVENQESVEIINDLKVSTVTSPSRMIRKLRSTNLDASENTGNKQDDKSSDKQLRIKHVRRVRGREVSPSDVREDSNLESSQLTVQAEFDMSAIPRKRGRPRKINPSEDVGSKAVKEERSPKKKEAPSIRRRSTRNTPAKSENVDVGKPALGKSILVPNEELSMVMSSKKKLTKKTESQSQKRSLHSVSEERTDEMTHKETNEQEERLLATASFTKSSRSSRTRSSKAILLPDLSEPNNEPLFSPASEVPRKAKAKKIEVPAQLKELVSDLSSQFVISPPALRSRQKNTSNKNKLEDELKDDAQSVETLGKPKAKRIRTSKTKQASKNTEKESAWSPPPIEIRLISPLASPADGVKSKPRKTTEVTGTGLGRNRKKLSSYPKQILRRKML
# Some of the results follow.
# Compound: Cc1cc(ccc1-c1ccccc1)C(=O)N1CCCN(CC1)C(=O)CCl [compound 10]
# Assay: probe-labelled cysteine peptide fold change vs DMSO (competition) (log2 fold change); higher = less target engagement (more negative = stronger competition)
# Details: THP-1, incubation time: 4 h
# 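Further: competitive profiling in live THP-1 cells: cysteine peptides tagged with an iodoacetamide desthiobiotin (IA-DTB) probe, intensity after compound treatment relative to DMSO-treated cells.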
Target,probe-labelled cysteine peptide fold change (10 µM),probe-labelled cysteine peptide fold change (50 µM)
AHCY_P23526_195_FDNLYGCR (UniProt P23526),-0.0463,0.236
AHCY_P23526_113_GETDEEYLWCIEQTLYFK (UniProt P23526),0.213,0.204
ALDH6A1_Q02252_86_AEMDAAIASCK (UniProt Q02252),-0.0464,-0.0142
ANKFY1_Q9P2R3_1060_GNANLCR (UniProt Q9P2R3),-0.0224,0.0974
ANAPC11_Q9NYG5_54_VPGDDCPLVWGQCSHCFHMHCILK (UniProt Q9NYG5),0.213,-0.0887
AKR1A1_P14550_134_NADGTICYDSTHYK (UniProt P14550),-0.106,-0.0321
ALCAM_Q13740_435_TIICHVEGFPK (UniProt Q13740),-0.0565,0.0183
ALCAM_Q13740_113_FVCMLVTEDNVFEAPTIVK (UniProt Q13740),-0.00103,0.293
ALG13_Q9NP73_86_ADLVISHAGAGSCLETLEK (UniProt Q9NP73),-0.211,-0.753
AHCY_P23526_421_QAQYLGMSCDGPFKPDHYRY (UniProt P23526),-0.14,-0.284
AKR1B1_P15121_304_VCALLSCTSHK (UniProt P15121),-0.547,-2.08
ALKBH1_Q13686_371_DISTEGFCHLDDQNSEVKR (UniProt Q13686),-0.349,-0.464
ALG2_Q9H553_70_CAGDWLPR (UniProt Q9H553),-0.126,0.0183
ANKFY1_Q9P2R3_712+716_HGCDATCWGPGPGGCLQTLLHR (UniProt Q9P2R3),0.00946,0.0105
ALDOA_P04075_290_CPLLKPWALTFSYGR (UniProt P04075),-0.405,-0.644
ALDOC_P09972_240_PNMVTPGHACPIK (UniProt P09972),-0.134,0.0797
ANK2_Q01484_375_APVDDVTLDYLTALHVAAHCGHYR (UniProt Q01484),-0.0423,-0.271
AKAP9_Q99996_3063_TELTALGTTDAVGLLNCLEQR (UniProt Q99996),-0.176,-0.488
AMBP_P02760_281_ECLQTCR (UniProt P02760),-0.538,-0.671
ANKFY1_Q9P2R3_460_GSHTDAPDTATGNCLLQR (UniProt Q9P2R3),-0.104,-0.113
AIP_O00170_90_EGEIAQFLCDIK (UniProt O00170),-0.312,-0.0858

Target,probe-labelled cysteine peptide fold change (10 µM),probe-labelled cysteine peptide fold change (50 µM)
ALDH16A1_Q8IZ83_39_CLGHYVNGK (UniProt Q8IZ83),-0.0412,-0.0466
AHNAK_Q09666_2162_LEGDLTGPSVDVEVPDVELECPDAK (UniProt Q09666),0.108,-0.124
AHCYL1_O43865_392+395_NSCIVCNMGHSNTEIDVTSLR (UniProt O43865),-0.0155,-0.571
AKR1B1_P15121_81_LWCTYHEK (UniProt P15121),-0.0369,-0.0183
AKAP2_Q9Y2D5_10_MEIEVSVAECK (UniProt Q9Y2D5),-0.3,-0.232
AKAP8_O43823_484_KIEAAHCLACDMLIPAQPQLLQR (UniProt O43823),0.197,-0.111
AHRR_A9YTQ3_485_DVGEDQVHPPLCHFPQR (UniProt A9YTQ3),0.526,0.383
AIP_O00170_78_LPVWETIVCTMR (UniProt O00170),-0.308,-0.31
AMDHD2_Q9Y303_261_CIFYGMIADGTHTNPAALR (UniProt Q9Y303),0.102,0.0697
ANAPC11_Q9NYG5_73+76_WLHAQQVQQHCPMCR (UniProt Q9NYG5),-0.342,0.706
ALDH1L1_O75891_537_YFAGWCDK (UniProt O75891),-0.0268,-0.223
AKR7A2_O43488_156_RLQCPQVDLFYLHAPDHGTPVEETLHACQR (UniProt O43488),-0.0385,-0.278
AMBP_P02760_277+281_ECLQTCR (UniProt P02760),-0.644,-0.975
ALDH9A1_P49189_173_SAPALACGNAMVFK (UniProt P49189),0.0109,0.275
ALDOA_P04075_202_RCQYVTEK (UniProt P04075),0.204,0.193
ALAS1_P13196_263_VCGAVMDTLK (UniProt P13196),0.303,-0.0294
AHNAK_Q09666_5502_SSGCDVNLPGVNVK (UniProt Q09666),-0.0741,-0.284
AKAP1_Q92667_102_LPAEPPALLQTHPPCR (UniProt Q92667),-0.222,-0.34
AHCYL1_O43865_392_NSCIVCNMGHSNTEIDVTSLR (UniProt O43865),0.17,0.08
ANGEL2_Q5VTE6_305_IPYAACPAICVANTHLLYNPR (UniProt Q5VTE6),0.0352,0.0303
AK2_P54819_40+42_LAENFCVCHLATGDMLR (UniProt P54819),0.0321,-0.437

Target,probe-labelled cysteine peptide fold change (10 µM),probe-labelled cysteine peptide fold change (50 µM)
ALDH9A1_P49189_289_GALMANFLTQGQVCCNGTR (UniProt P49189),0.00295,-0.399
ALDH3A2_P51648_425_HSFDTFSHQRPCLLK (UniProt P51648),-0.192,-0.43
AK1_P00568_187_KVNAEGSVDSVFSQVCTHLDALK (UniProt P00568),-0.0662,-0.254
ALDH4A1_P30038_315_LAGECGGK (UniProt P30038),-0.0573,0.0215
AGPS_O00116_565_GVQFAPFSTCR (UniProt O00116),-0.0112,0.125
AHCYL1_O43865_215_CVNMDGWQANMILDDGGDLTHWVYKK (UniProt O43865),0.00395,-0.06
AIMP2_Q13155_306_SCENLAPFNTALK (UniProt Q13155),0.0178,0.0757
AK6_Q9Y3D8_122_KLTDNIQCEIFQVLYEEATASYK (UniProt Q9Y3D8),0.161,0.461
ALDOC_P09972_73_KCIGGVIFFHETLYQK (UniProt P09972),0.224,-0.0656
ALDH9A1_P49189_150_REPLGVCVGIGAWNYPFQIASWK (UniProt P49189),0.0657,0.271
AKT2_P31751_124_CGSPSDSSTTEEMEVAVSK (UniProt P31751),-0.251,-0.373
AHNAK_Q09666_1833_GPFVEAEVPDVDLECPDAK (UniProt Q09666),-0.0289,-0.194
AKR1B1_P15121_299_VCALLSCTSHK (UniProt P15121),-0.208,-2.38
ANAPC1_Q9H1A4_1074_LLQLCQR (UniProt Q9H1A4),-0.0436,0.000425
AKR7A2_O43488_132_LQCPQVDLFYLHAPDHGTPVEETLHACQR (UniProt O43488),-0.093,0.725
AGPS_O00116_214_IPDIVLWPTCHDDVVK (UniProt O00116),0.00619,0.0559
AHCYL1_O43865_293_QKFDNLYCCR (UniProt O43865),-0.0835,-0.419
AK2_P54819_40_LAENFCVCHLATGDMLR (UniProt P54819),-0.125,0.078
ANAPC11_Q9NYG5_73_WLHAQQVQQHCPMCR (UniProt Q9NYG5),-0.0741,-0.108
AKAP17A_Q02040_17_AAATIVHDTSEAVELCPAYGLYLK (UniProt Q02040),0.304,0.379
AKR7A2_O43488_156_LQCPQVDLFYLHAPDHGTPVEETLHACQR (UniProt O43488),0.0687,-0.0865

Target,probe-labelled cysteine peptide fold change (10 µM),probe-labelled cysteine peptide fold change (50 µM)
AKAP8_O43823_173_NGSFGGQYSECR (UniProt O43823),-0.0927,0.0282
ALAD_P13716_162_AGCQVVAPSDMMDGRVEAIK (UniProt P13716),-0.0543,-0.357
ANAPC1_Q9H1A4_1630_LLVPVDVDTNTPCYALLEVTYK (UniProt Q9H1A4),-0.151,0.155
ANKFY1_Q9P2R3_843_QGLTPFACAMTFK (UniProt Q9P2R3),-0.108,-0.109
AHCTF1_Q8WYP5_354_LLGCQSIEK (UniProt Q8WYP5),-0.194,-0.167
AMFR_Q9UKV5_364_KLPCGHLFHNSCLR (UniProt Q9UKV5),0.0577,-0.0323
ALDH4A1_P30038_95_FCYADK (UniProt P30038),0.038,0.0641
AKR1C3_P42330_242_WVDPNSPVLLEDPVLCALAK (UniProt P42330),0.288,0.69
AIMP2_Q13155_23_PYHGGGAPLRVELPTCMYR (UniProt Q13155),-0.0258,-0.326
AHNAK_Q09666_1900_LEGDLTGPSVGVEVPDVELECPDAK (UniProt Q09666),0.0744,0.0974
AKAP9_Q99996_2868_EECGTLK (UniProt Q99996),-0.0389,0.0822
ALDH2_P05091_66_KTFPTVNPSTGEVICQVAEGDKEDVDK (UniProt P05091),-0.221,-0.465
ALDH5A1_P51649_93_WLPAAATFPVQDPASGAALGMVADCGVR (UniProt P51649),0.0442,0.976
ANAPC1_Q9H1A4_575_LHDSLYNEDCTFQQLGTYIHSIRDPVHNR (UniProt Q9H1A4),0.0704,0.147
AMOT_Q4VCS5_741_CLDMEGR (UniProt Q4VCS5),0.131,-0.346
AHCTF1_Q8WYP5_107_RTGLLIGLEETEGSVLCLYDLGISK (UniProt Q8WYP5),0.125,0.0532
ALKBH4_Q9NXW9_227_SVLCQEVEVAIPLPAR (UniProt Q9NXW9),-0.161,0.229
AKR1B1_P15121_187_YKPAVNQIECHPYLTQEK (UniProt P15121),-0.131,-0.266
AK2_P54819_92_NLETPLCK (UniProt P54819),-0.166,-0.0542
AMPD3_Q01432_691_LSTCDLCEIAR (UniProt Q01432),-0.0324,-0.156
